Measurements reported in PubChem BioAssay AID1159578 (Peter MacCallum Cancer Centre, 2015).

- Aim: 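Genome-wide hunt for genes controlling movement of lymphatic endothelial cells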 (primary screen)
- Cells: human lymphatic endothelial cells
- Reagents: siRNA pool against human genes, 40 nM
- Duration: 48 h after transfection
- Read-out: 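Cells stained with dye and imaged after a scratch; covered wound area and nuclei counted, duplicates averaged, migration set against mock wells and turned into a robust z-score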
- Direction: migration robust z-score: higher = faster migration into the scratch; nuclei per well: higher = more cells in the well
- Active means: 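Pools averaging fewer than 3300 nuclei are never called; remaining pools count as changed when migration robust z lies outside -2 to 2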
- Meaning of the calls: active = migration changed; inactive = no migration change, or too few cells
The whole screen tested about 18,000 reagents; below is an unselected part. Over the whole deposit, about 1,030 (5.7%) are marked active. 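Inactive calls also include pools with fewer than 3300 nuclei, whose migration was not assessed.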 Raw values vary from plate to plate and are shown uncorrected. A number with no mark means an inactive call. Not all columns of the deposit are shown.

BAIAP2L1 showed migration robust z-score 0.94; migration class with cell-count check migration z between -2 and 2; enough cells; nuclei per well, duplicate mean 4938.
Depletion of ADIRF resulted in: migration robust z-score -1.12; migration class with cell-count check migration z between -2 and 2; enough cells; nuclei per well, duplicate mean 4314.
After knock-down of TOLLIP, the screen gave migration robust z-score -1.01; migration class with cell-count check migration z between -2 and 2; enough cells; nuclei per well, duplicate mean 5126.
After knock-down of ZDHHC22, the screen gave migration robust z-score -0.04; migration class with cell-count check migration z between -2 and 2; enough cells; nuclei per well, duplicate mean 5125.
For ADAMTS18 the deposit lists migration robust z-score 1.32; migration class with cell-count check migration z between -2 and 2; enough cells; nuclei per well, duplicate mean 5270.
After knock-down of CDCA3, the screen gave migration robust z-score -0.78; migration class with cell-count check migration z between -2 and 2; enough cells; nuclei per well, duplicate mean 5615.
Knock-down of GPRIN2 resulted in: migration robust z-score 0.55; migration class with cell-count check migration z between -2 and 2; enough cells; nuclei per well, duplicate mean 5111.
CST7 showed migration robust z-score -0.2; migration class with cell-count check migration z between -2 and 2; enough cells; nuclei per well, duplicate mean 4562.
After knock-down of RPS6KA2, the record shows migration robust z-score -1.56; migration class with cell-count check under 3300 nuclei; migration not judged; nuclei per well, duplicate mean 2716.

3 entries from above in another layout:
| Gene | migration robust z-score | migration class with cell-count check | nuclei per well, duplicate mean |
| --- | --- | --- | --- |
| TOLLIP | -1.01 | migration z between -2 and 2; enough cells | 5126 |
| ZDHHC22 | -0.04 | migration z between -2 and 2; enough cells | 5125 |
| ADAMTS18 | 1.32 | migration z between -2 and 2; enough cells | 5270 |

The listing continues.
Against CRLF1, the values are migration robust z-score -0.54; migration class with cell-count check migration z between -2 and 2; enough cells; nuclei per well, duplicate mean 5866.
After knock-down of OR8H1 the results were migration robust z-score -0.84; migration class with cell-count check migration z between -2 and 2; enough cells; nuclei per well, duplicate mean 5797.
With knock-down of CLK3 the results were migration robust z-score -1.09; migration class with cell-count check migration z between -2 and 2; enough cells; nuclei per well, duplicate mean 4726.
TMEM95 gave migration robust z-score -0.66; migration class with cell-count check migration z between -2 and 2; enough cells; nuclei per well, duplicate mean 6438.
For RAB40B the deposit lists migration robust z-score -0.16; migration class with cell-count check migration z between -2 and 2; enough cells; nuclei per well, duplicate mean 4936.
After knock-down of HKDC1 the results were migration robust z-score -0.08; migration class with cell-count check migration z between -2 and 2; enough cells; nuclei per well, duplicate mean 6208.
For ANKRD2, the entry reads migration robust z-score -1.43; migration class with cell-count check migration z between -2 and 2; enough cells; nuclei per well, duplicate mean 4552.
After knock-down of POT1, the screen gave migration robust z-score -0.9; migration class with cell-count check migration z between -2 and 2; enough cells; nuclei per well, duplicate mean 3455.
After knock-down of TCL1B the results were migration robust z-score 2.24 (active); migration class with cell-count check migration z above 2; enough cells; nuclei per well, duplicate mean 4906.
After knock-down of BNIP3L, the record shows migration robust z-score 0.32; migration class with cell-count check migration z between -2 and 2; enough cells; nuclei per well, duplicate mean 5128.
Against SOCS2, the entry reads migration robust z-score 0.5; migration class with cell-count check migration z between -2 and 2; enough cells; nuclei per well, duplicate mean 5417.
Silencing of SLC12A5 resulted in: migration robust z-score 0.93; migration class with cell-count check migration z between -2 and 2; enough cells; nuclei per well, duplicate mean 5650.
